The text below walks through data of article PMC6181910.

By UniProt entry, the sequences of proteins in these tests, tags left out. Residues count along the entry.
UniProt P06213, residues 28-1382: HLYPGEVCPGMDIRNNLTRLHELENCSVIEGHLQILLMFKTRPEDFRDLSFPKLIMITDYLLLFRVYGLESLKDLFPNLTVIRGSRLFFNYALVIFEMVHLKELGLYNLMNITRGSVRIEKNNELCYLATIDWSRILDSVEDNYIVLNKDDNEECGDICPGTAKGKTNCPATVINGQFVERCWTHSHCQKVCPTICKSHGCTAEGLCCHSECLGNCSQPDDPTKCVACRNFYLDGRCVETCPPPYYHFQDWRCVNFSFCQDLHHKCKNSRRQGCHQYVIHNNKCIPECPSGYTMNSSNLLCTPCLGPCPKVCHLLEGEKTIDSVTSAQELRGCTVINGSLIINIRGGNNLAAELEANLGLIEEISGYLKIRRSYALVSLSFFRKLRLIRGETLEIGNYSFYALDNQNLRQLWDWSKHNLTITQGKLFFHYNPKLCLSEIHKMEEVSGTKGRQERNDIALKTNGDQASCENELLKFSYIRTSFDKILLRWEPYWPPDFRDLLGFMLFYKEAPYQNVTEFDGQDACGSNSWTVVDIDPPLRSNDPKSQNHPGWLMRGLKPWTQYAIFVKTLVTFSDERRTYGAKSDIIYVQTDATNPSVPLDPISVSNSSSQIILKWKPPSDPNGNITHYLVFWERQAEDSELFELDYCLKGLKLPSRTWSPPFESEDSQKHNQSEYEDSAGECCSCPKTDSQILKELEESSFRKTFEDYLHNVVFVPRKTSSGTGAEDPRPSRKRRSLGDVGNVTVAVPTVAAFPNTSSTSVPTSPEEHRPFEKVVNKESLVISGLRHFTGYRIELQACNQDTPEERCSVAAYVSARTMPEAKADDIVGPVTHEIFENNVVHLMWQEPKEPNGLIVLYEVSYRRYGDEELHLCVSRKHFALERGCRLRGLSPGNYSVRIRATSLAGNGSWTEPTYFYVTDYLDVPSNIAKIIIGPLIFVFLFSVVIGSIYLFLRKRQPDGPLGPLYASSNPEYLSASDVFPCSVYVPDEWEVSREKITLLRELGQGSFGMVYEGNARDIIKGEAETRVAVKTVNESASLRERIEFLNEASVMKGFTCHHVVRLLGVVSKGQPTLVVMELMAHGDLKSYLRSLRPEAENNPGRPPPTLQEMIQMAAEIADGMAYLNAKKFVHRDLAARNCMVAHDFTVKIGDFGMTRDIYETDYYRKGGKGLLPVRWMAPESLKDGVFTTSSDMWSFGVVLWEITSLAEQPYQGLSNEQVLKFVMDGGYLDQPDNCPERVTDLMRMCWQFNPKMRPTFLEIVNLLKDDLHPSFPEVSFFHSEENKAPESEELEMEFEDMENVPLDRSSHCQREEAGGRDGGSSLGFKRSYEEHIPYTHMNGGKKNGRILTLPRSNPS

Results are given in words; binding and its absence hold for the method and conditions named. Binding seen in cells or lysates may run through a third protein. Some entries that bind do so weakly or less than the wild type.

In this assay the target is insulin receptor precursor (INSR) (human (endogenous in T cells)) (UniProt P06213). Nature of the assay: co-IP; INSR-specific antibody coupled to Dynabeads Protein A/G, added to the lysate of T cells; precipitate read by Western blot; cells with control, lnc-INSR overexpression or mutant lnc-INSR (less MARCH1 and c-CBL with lnc-INSR overexpression, no difference with the mutant).

B1: membrane-associated ring-CH-type finger-1 (MARCH1) (enzyme, UniProt Q8TCQ1 1-289)
chain: MLGWCEAIARNPHRIPNNTRTPEISGDLADASQTSTLNEKSPGRSASRSSNISKASSPTTGTAPRSQSRLSVCPSTQDICRICHCEGDEESPLITPCRCTGTLRFVHQSCLHQWIKSSDTRCCELCKYDFIMETKLKPLRKWEKLQMTTSERRKIFCSVTFHVIAITCVVWSLYVLIDRTAEEIKQGNDNGVLEWPFWTKLVVVAIGFTGGLVFMYVQCKVYVQLWRRLKAYNRVIFVQNCPDTAKKLEKNFSCNVNTDIKDAVVVPVPQTGANSLPSAEGGPPEVVSV
Turning to B1, the binding result is “binds”.
